PubChem BioAssay AID1347131 (National Center for Advancing Translational Sciences (NCATS), 2019)
Screen size: about 410,000 compounds; about 2,000 (0.49%) were called active. Inconclusive results, whose numbers are uncertain, are shown with a selection of clear calls. The call rests on the fitted dose curve; tested in HEK293 reporter line. Where the call is inconclusive, the potency comes from a doubtful curve fit.

Test: qHTS Assay for Foot and Mouth Disease Virus Antivirals: Primary Screen against the MLPCN compound library; further: nearly all actives have a fitted effect of over 55% in size
Settings: FMDV antiviral cell-based qHTS; activity, negative = inhibition: at 57.9 µM (top of the series)
Potency means the concentration at half of the fitted maximal effect.

SMILES	Potency	activity, negative = inhibition
Cc1cc(-n2c(C)cc(C(=O)CSc3ncnc4ccccc34)c2C)no1	inconclusive: 12.6 µM [inhibitor, partial curve, poor fit]	
CCN(CCNC(=O)C1CCN(Cc2nc(-c3cccc(Cl)c3)oc2C)CC1)c1ccccc1	inconclusive: 39.8 µM [inhibitor, partial curve, poor fit]	
O=C(Nc1c(F)cc(F)cc1Br)c1cc2nc(C(F)F)cc(C(F)F)n2n1		inconclusive: -31.7% [inhibitor]
Cn1c(=O)c2c(ncn2CC(=O)Nc2nc(-c3ccccc3Cl)cs2)n(C)c1=O	inconclusive: 12.6 µM [inhibitor, partial curve, poor fit]	
COc1cc(OC)cc(C(=O)Nc2ccc3nc(Nc4cccc(C(F)(F)F)c4)cc(C)c3c2)c1	inconclusive: 8.91 µM [inhibitor, partial curve]	
Cn1c2c(c(=O)n(C)c1=O)C(C(F)(F)F)(C(F)(F)F)N=C(c1ccc(Cl)cc1)N2	inconclusive: 2.24 µM [inhibitor, partial curve, poor fit]	
C=C(CC1([C@@H](NP(=O)(c2ccccc2)c2ccccc2)[C@H]2C[C@@H]2CCCC)CC1)c1ccccc1	inconclusive: 31.6 µM [inhibitor, partial curve, poor fit]	
Cc1cccc(NC(=O)c2ccc(N(Cc3ccccc3)S(C)(=O)=O)cc2)c1	inconclusive: 22.4 µM [inhibitor, partial curve, poor fit]	
COc1cccc(C(=O)Nn2c(-c3cccs3)nc3ccccc3c2=O)c1OC	inconclusive: 22.4 µM [inhibitor, partial curve, poor fit]	
C=CCn1c(SCN2C(=O)c3ccccc3C2=O)nc2ccc(Cl)cc2c1=O	inconclusive: 15.8 µM [inhibitor, partial curve, poor fit]	
CCOC(=O)c1c(C)n(C)c2ccc(O)c(CN(C)C)c12		inconclusive: -38.2% [inhibitor]
Clc1cccc(Cc2c(-c3ccco3)nc3ccc(Cl)cn23)c1	inconclusive: 39.8 µM [inhibitor, partial curve, poor fit]	
O=C(Nc1cccc(S(=O)(=O)NC2=NCCCCC2)c1)c1cc(-c2ccco2)nc2ccccc12	inconclusive: 14.1 µM [inhibitor, partial curve]	
CCN(CCCNC(=O)c1nn(C)c2c1CS(=O)(=O)c1ccccc1-2)Cc1ccccc1	inconclusive: 3.98 µM [inhibitor, full curve]	
CC(C)N1CCC2(CC1)Oc1ccc(Br)cc1C1CC(c3cccnc3)=NN12 (stereo not given)	inconclusive: 35.5 µM [inhibitor, partial curve]	
CCOC(=O)c1sc2ccc(S(=O)(=O)N3CCCCC3)cc2c1N	active: 17.8 µM	
COc1ccc(CN2CCN(S(=O)(=O)c3ccccc3)CC2)cc1Br	inconclusive: 1.78 µM [inhibitor, full curve]	
CN(c1cccc(NC(=O)c2ccc(N(C)S(=O)(=O)c3ccccc3)cc2)c1)S(C)(=O)=O	inconclusive: 14.1 µM [inhibitor, partial curve, poor fit]	

Retrieved by compound from the list above, 3 records:
SMILES	Potency	activity, negative = inhibition
Cc1cc(-n2c(C)cc(C(=O)CSc3ncnc4ccccc34)c2C)no1	inconclusive: 12.6 µM [inhibitor, partial curve, poor fit]	
C=C(CC1([C@@H](NP(=O)(c2ccccc2)c2ccccc2)[C@H]2C[C@@H]2CCCC)CC1)c1ccccc1	inconclusive: 31.6 µM [inhibitor, partial curve, poor fit]	
CC(C)N1CCC2(CC1)Oc1ccc(Br)cc1C1CC(c3cccnc3)=NN12 (stereo not given)	inconclusive: 35.5 µM [inhibitor, partial curve]	

Further results:

SMILES	Potency	activity, negative = inhibition
O=C(CCl)N1c2ccccc2OCC1c1ccccc1 (stereo not given)	inconclusive: 17.8 µM [inhibitor, partial curve, poor fit]	
O=C1c2ccccc2C(=O)N1CCC#Cc1ccc2cc(C3(O)CCCCC3)oc(=O)c2c1	inconclusive: 39.8 µM [inhibitor, partial curve, poor fit]	
O=C(OCc1ccccc1)N1CCOCCOCCN(C(=O)OCc2ccccc2)CCOCCOCC1	inconclusive: 22.4 µM [inhibitor, partial curve, poor fit]	
CCS(=O)(=O)c1nnnn1-c1ccccc1S(C)(=O)=O	inconclusive: 39.8 µM [inhibitor, partial curve, poor fit]	
COc1ccccc1NC(=O)c1cnc(SCC(=O)NCC2CCCO2)n(C)c1=O (stereo not given)	inconclusive: 25.1 µM [inhibitor, partial curve, poor fit]	
CCc1ccc(-c2nc(CSCC(=O)N3CCN(c4ncccn4)CC3)c(C)o2)cc1	inconclusive: 22.4 µM [inhibitor, partial curve, poor fit]	
CCCn1c(=S)[nH]c2cc(C(=O)NCC3CCCO3)ccc2c1=O (stereo not given)	inconclusive: 12.6 µM [inhibitor, single point]	
CN(Cc1ccc2c(c1)OCCO2)C(=O)CSc1ncnc2sccc12	inconclusive: 39.8 µM [inhibitor, partial curve, poor fit]	
Cc1ccc(C)c(CSc2ccc3nnc(-c4ccccn4)n3n2)c1	inconclusive: 22.4 µM [inhibitor, partial curve, poor fit]	
CN(C)c1cc[n+](CC(O)C[n+]2ccc(N(C)C)cc2)cc1	inconclusive: 3.55 µM [inhibitor, full curve]	
O=C(CCl)Nc1cccc(-c2cnc3ccccc3n2)c1	inconclusive: 25.1 µM [inhibitor, partial curve, poor fit]	
CSc1ccc(/C=C/C(=O)c2ccc(O)cc2)cc1	inconclusive: 39.8 µM [inhibitor, single point]	
N#Cc1ccccc1Cn1cc(/C=C/[N+](=O)[O-])c2ccccc21	inconclusive: 14.1 µM [inhibitor, partial curve, poor fit]	
COc1ccc(CCC(=O)Nc2ccc(C)c(S(=O)(=O)N(C)C)c2)cc1OC	inconclusive: 10 µM [inhibitor, partial curve, poor fit]	
O=S(Cc1ccc(Br)cc1)Cc1nnc(SCc2ccc(Br)cc2)n1-c1ccccc1 (stereo not given)	inconclusive: 15.8 µM [inhibitor, partial curve, poor fit]	
O=[N+]([O-])c1c(Nc2ccc(O)cc2)cc(Cl)c2nonc12	inconclusive: 22.4 µM [inhibitor, partial curve, poor fit]	
Cc1ccc(-c2c(C)n3c4c(=O)n(C)c(=O)n(C)c4nc3n2CCO)cc1	inconclusive: 17.8 µM [inhibitor, partial curve, poor fit]	
